Results: paper PMC11565738
These are yes or no findings as the source states them, for the method shown. In cells and extracts the contact can be indirect. A yes stands for co-enrichment or nearness to the bait. Other partners may have been found. A no says only that the protein was not detected with the bait.

Legend:
[1] = biological target: RBMP2-Venus-3×FLAG (Rubisco-Binding Membrane Protein 2) (C. reinhardtii); experiment: affinity purification with mass spectrometry; detergent-based affinity purification of Venus-3×FLAG-tagged bait from C. reinhardtii lysate, performed as in Wang et al., 2023 (membranes dissolved with digitonin); control: Venus alone
[2] = biological target: RBMP1-Venus-3×FLAG (Rubisco-Binding Membrane Protein 1) (C. reinhardtii); experiment: as above

binding [1]: no binding
binding [2]: no binding
B1: Carbonic AnHydrase 3 (CAH3) (enzyme, UniProt Q39588 1-310)
chain: MRSAVLQRGQARRVSCRVRADGSGVDSLPSTSASSSARPLIDRRQLLTGAAASVITFVGCPCPLCKPGEAKAAAWNYGEVAGPPTWKGVCATGKRQSPINIPLNTSAPKVDAEMGEFDFAYGSFEKCDVLNTGHGTMQVNFPAGNLAFIGNMELELLQFHFHAPSEHAMDGRRYAMEAHLVHKNKSTGNLAVLGIMLEPGGLIKNPALSTALEVAPEVPLAKKPSPKGINPVMLLPKKSKAGTRPFVHYPGSLTTPPCSEGVDWFVFMQPIKVPDSQILDFMRFVGDNKTYATNTRPLQLLNSRLVEYEL
